Source: the supplement of paper PMC10849652
The list shows a part of the results.

By UniProt entry, the sequences of proteins in these tests, tags left out. Where a name states a change or a piece, a line headed by the entry shows the natural chain unless it says otherwise.
UniProt P02008: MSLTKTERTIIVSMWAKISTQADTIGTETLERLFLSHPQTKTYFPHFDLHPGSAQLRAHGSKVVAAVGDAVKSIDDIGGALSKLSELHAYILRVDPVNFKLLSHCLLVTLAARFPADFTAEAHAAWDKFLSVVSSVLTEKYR
UniProt P29083: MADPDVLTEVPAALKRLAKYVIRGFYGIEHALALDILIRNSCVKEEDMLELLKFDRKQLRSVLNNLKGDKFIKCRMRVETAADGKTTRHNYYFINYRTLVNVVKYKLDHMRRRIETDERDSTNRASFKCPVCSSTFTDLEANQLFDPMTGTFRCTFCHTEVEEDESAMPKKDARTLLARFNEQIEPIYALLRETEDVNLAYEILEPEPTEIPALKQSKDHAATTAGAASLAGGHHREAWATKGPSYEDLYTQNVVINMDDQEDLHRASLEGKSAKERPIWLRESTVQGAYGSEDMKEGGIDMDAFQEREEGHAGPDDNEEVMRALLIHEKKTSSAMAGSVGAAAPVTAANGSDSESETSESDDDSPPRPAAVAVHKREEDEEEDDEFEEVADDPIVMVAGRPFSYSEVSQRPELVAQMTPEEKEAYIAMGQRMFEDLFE
UniProt Q92522: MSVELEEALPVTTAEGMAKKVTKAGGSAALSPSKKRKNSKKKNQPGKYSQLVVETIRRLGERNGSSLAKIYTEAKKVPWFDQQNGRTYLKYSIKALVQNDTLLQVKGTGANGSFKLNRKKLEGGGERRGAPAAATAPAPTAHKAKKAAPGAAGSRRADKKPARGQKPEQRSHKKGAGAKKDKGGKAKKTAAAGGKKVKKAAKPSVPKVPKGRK
UniProt Q7Z4V5: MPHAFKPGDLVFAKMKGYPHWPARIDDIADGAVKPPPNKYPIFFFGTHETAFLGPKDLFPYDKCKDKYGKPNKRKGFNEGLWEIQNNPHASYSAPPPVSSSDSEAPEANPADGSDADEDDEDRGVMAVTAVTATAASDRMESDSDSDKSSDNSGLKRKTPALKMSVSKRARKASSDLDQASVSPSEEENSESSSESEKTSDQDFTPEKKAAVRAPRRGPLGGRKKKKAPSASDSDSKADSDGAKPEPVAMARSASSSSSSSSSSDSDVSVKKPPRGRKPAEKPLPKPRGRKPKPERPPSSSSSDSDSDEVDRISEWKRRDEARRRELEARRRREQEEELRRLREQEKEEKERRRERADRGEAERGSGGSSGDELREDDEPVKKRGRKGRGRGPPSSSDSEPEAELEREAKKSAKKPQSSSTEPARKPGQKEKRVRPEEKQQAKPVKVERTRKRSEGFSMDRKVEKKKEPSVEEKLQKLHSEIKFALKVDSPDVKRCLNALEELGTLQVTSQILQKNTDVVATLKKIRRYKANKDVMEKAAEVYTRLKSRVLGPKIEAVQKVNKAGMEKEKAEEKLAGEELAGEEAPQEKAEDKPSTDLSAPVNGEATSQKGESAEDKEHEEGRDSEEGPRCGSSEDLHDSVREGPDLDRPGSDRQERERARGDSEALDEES
UniProt Q9Y2Q3: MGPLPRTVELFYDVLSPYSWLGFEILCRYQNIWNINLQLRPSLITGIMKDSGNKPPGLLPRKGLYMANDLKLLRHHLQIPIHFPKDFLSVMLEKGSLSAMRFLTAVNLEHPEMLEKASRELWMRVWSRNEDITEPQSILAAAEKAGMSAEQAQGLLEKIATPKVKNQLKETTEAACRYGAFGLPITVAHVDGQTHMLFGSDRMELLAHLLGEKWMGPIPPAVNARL
UniProt P13807: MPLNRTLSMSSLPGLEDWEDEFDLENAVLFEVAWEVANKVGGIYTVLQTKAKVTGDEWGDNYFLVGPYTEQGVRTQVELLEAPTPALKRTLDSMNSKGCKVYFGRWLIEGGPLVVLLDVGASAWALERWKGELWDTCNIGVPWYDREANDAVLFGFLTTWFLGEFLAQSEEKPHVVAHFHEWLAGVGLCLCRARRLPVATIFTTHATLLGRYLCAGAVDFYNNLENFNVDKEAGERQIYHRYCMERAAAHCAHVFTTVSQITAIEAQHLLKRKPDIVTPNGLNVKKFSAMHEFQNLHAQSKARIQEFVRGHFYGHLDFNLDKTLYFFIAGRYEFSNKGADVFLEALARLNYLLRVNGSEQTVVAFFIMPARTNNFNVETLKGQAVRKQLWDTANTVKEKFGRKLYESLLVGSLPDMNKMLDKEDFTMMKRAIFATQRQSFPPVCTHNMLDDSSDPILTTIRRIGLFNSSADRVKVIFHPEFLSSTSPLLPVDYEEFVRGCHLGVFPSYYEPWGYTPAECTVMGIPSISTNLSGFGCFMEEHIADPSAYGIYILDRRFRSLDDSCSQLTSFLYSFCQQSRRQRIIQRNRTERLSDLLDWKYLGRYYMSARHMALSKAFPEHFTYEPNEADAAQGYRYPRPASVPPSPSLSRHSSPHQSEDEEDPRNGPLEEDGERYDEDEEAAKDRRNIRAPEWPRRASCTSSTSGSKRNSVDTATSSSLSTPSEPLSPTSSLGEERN
UniProt P12081: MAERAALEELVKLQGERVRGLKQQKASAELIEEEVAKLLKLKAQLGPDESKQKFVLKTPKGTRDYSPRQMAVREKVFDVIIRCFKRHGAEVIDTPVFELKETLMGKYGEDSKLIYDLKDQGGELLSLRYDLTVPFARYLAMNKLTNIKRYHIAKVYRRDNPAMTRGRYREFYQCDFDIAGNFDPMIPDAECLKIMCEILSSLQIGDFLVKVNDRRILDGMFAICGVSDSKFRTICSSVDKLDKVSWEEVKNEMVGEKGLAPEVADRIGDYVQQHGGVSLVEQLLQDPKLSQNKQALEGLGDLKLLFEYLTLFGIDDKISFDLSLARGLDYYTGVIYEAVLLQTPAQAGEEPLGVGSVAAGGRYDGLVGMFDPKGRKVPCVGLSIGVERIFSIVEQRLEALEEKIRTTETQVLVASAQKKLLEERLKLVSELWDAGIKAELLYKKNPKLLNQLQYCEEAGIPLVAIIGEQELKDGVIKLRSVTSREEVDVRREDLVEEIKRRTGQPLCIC
UniProt Q9H0R4: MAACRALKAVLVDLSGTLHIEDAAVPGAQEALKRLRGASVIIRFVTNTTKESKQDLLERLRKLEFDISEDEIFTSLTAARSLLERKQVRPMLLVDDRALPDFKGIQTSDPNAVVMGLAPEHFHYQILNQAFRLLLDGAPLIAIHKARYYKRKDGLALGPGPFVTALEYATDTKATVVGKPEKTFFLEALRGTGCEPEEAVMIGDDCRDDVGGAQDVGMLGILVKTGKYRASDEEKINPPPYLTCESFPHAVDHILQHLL

Assays:
Experiment in all cases: log2 fold change, soluble protein after heating vs DMSO (PISA); higher = thermal stabilisation; K562 lysate, 10 uM; active = over 0.2 and 3.5 SD of the protein, either way, in both replicates (recomputed)
[1] = compound: NCC(=O)Nc1ccc(-n2nc(C(F)(F)F)cc2-c2ccc3c(ccc4ccccc43)c2)cc1
Summary of the method: (§1)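 To prepare the extract, K562 pellets were dounce-homogenised in PBS pH 7.4 with 1 mM MgCl2, giving crude material at 1 mg/mL protein. This was treated with 10 μM compound for 30 min, then heated in aliquots for 3 min over 48°C-58°C before pooling and addition of NP-40 to 0.5% at 4°C. Centrifugation at 21,000xg for 90 min left soluble protein in the supernatant, which TMTpro 16plex LC-MS/MS quantified with equalised channel sums. Results are log-two fold changes in thermal stability compared with solvent controls, from duplicates.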

vorinostat = compound: O=C(CCCCCCC(=O)Nc1ccccc1)NO [vorinostat]
Summary of the method: as §1

silmitasertib = compound: O=C(O)c1ccc2c(c1)nc(Nc1cccc(Cl)c1)c1ccncc12 [silmitasertib]
Summary of the method: as §1

[2] = compound: O=C1NC(=O)C(c2cnc3ccccn23)=C1c1cn2c3c(cc(F)cc13)CN(C(=O)N1CCCCC1)CC2
Summary of the method: as §1

entospletinib = compound: c1cn2cc(-c3ccc4cn[nH]c4c3)nc(Nc3ccc(N4CCOCC4)cc3)c2n1 [entospletinib]
Summary of the method: as §1

Measured: log2 fold change

HBZ (UniProt P02008)
inactive: [1] -0.127 | vorinostat 0.154 | silmitasertib -0.014 | [2] 0.024 | entospletinib 0

GTF2E1 (UniProt P29083)
inactive: [1] -0.02 | vorinostat -0.002 | silmitasertib -0.007 | [2] -0.003 | entospletinib -0.013

H2AFX (UniProt P16104)
inactive: [1] -0.019 | vorinostat 0.126 | silmitasertib 0.004 | [2] 0.005 | entospletinib -0.077

H1FX (UniProt Q92522)
inactive: [1] -0.013 | vorinostat 0.141 | silmitasertib 0 | [2] 0.03 | entospletinib -0.008

HDGFL2 isoform 2 (UniProt Q7Z4V5)
inactive: [1] 0.02 | vorinostat 0.117 | silmitasertib -0.013 | [2] 0.01 | entospletinib -0.012

GSTK1 (UniProt Q9Y2Q3)
inactive: [1] 0.018 | vorinostat -0.037 | silmitasertib 0.01 | [2] 0.011 | entospletinib -0.01

GYS1 (UniProt P13807)
inactive: [1] -0.02 | vorinostat 0.016 | silmitasertib 0.051 | [2] -0.001 | entospletinib -0.033

HARS (UniProt P12081)
inactive: [1] -0.031 | vorinostat -0.003 | silmitasertib 0.02 | [2] -0.054 | entospletinib 0.001

HDHD2 (UniProt Q9H0R4)
inactive: [1] -0.054 | vorinostat 0.099 | silmitasertib -0.007 | [2] -0.003 | entospletinib -0.007
